# Assay results published in patent US20240102068A1, “C-GLYCOSYLTRANSFERASE VARIANTS AND USE THEREOF” (KOREA ADVANCED INSTITUTE OF SCIENCE AND TECHNOLOGY, priority 2021, published 2024).
# Some of these results come from one statement about several compounds together.
# B1: L194A: GtCGT^V93Q/Y193F with additional L194A (Table 12 No. 12) (protein, listed as Gentiana triflora)
# chain: MGSLTNNDNLHIFLVCFIGQGVVNPMLRLGKAFASKGLLVTLSAPEIVGTEIRKANNLNDDQPIKVGSGMIRFEFFDDGWESVNGSKPFDVWQYINHLDQTGRQKLPIMLKKHEETGTPVSCLILNPLVPWVADVADSLQIPCATLWVQSCASFSAYYHYHHGLVPFPTESEPEIDVQLPGMPLLKYDEVPDFAHPRTPYPFFGTNILGQFKNLSKNFCILMDTFYELEHEIIDNMCKLCPIKPIGPLFKIPKDPSSNGITGNFMKVDDCKEWLDSRPTSTVVYVSVGSVVYLKQEQVTEMAYGILNSEVSFLWVLRPPSKRIGTEPHVLPEEFWEKAGDRGKVVQWSPQEQVLAHPATVGFLTHCGWNSTQEAISSGVPVITFPQFGDQVTNAKFLVEEFKVGVRLGRGELENRIITRDEVERALREITSGPKAEEVKENALKWKKKAEETVAKGGYSERNLVGFIEEVARKTGTK
# Test system: aloesone
# Experiment: Aloesin production from aloesone by GtCGT and variants in E. coli BL21(DE3), flask culture
# Assay type: cell-based
# Conditions: compared to conventional concentration of 0.3 μg/L (ALS strain with GtCGT^V93Q/Y193F)
# Experimental: Also, in LC-MS/MS for aloesin analysis, MS (Agilent 6550 iFunnel Q-TOF LC/MS System) coupled with ultra HPLC (UHPLC; 1290 Infinity II LC System; Agilent) was used. Here, an Eclipse-plus C18 column was used, and 0.1% formic acid was used as buffer A, and acetonitrile to which 0.1% formic acid was added was used as buffer B.
# Thereafter, in order to test the production of aloesin, the pCDF-GtCGT or pCDF-GtCGT^V93Q/Y193F plasmid was transformed into the BL21(DE3) strain containing pWAS-anti-pabA, pRSF-RpALS, and pBBR1-zwf plasmids, followed by flask culture.
# Similarly to the test for increased production of aloesone, RpALS was additionally introduced to increase aloesin production. To this end, pCDF-RpALS-GtCGT^V93Q/Y193F was constructed instead of introducing pCDF-GtCGT^V93Q/Y193F. Specifically, RpALS was amplified from pCDF-RpALS using pCDFDuet F and pCDFDuet R primers, and inserted into the NcoI and BamHI sites of the pCA plasmid through Gibson assembly. Thereafter, four plasmids, namely pRSF-RpALS, pCDF-RpALS-GtCGT^V93Q/Y193F, pWAS-anti-pabA, and pBBR1-zwf, were transformed into E. coli BL21(DE3), which was named an ALS strain.
# (§1) Mutagenesis for a specific sequence was performed in the same manner as in Example 2. Here, plasmids containing gene mutants were constructed using pCDF-RpALS-GtCGT^V93Q/Y193F as a template and using primer pairs shown in Table 11 below. The plasmids thus constructed were transformed into the BL21 (DE3) strain along with three plasmids, namely pWAS-anti-pabA, pRSF-RpALS, and pBBR1-zwf, followed by flask culture under the same conditions as in Example 3 using the strains thus constructed. The concentration of aloesin produced was measured in an MRM mode of the HPLC Triple Quadrupole Mass Spectrometer (LCMS-8050, Shimadzu) of the KAIST Biocore Center.
# as §1, with “13” for “11”
molecule,measurement,value
B1,aloesin production increase,≥ 5 fold
